Where a name gives a salt, the structure may show the parent alone. The list shows a part of the results. Repeats are few or missing, and single values can be far off. Where a SMILES comes first, the peptide text is derived from it. Bridges are numbered along the chain shown (N, C = ends). [ ]: non-standard residue; d: D form. The star is where a group is joined. Ileψ(thiazoline)Cys = CC[C@H](C)[C@H](N)C1=N[C@H](C(=O)*)CS1; dOrn = NCCC[C@@H](N)C(=O)O
Tested on: p95-ErbB2-MCF7
Assay: perinuclear lysosome accumulation (PNLA, size of LAMP2 puncta), robust Z-score vs plate median; higher = more perinuclear lysosome accumulation (reversal of invasive lysosome distribution)
Settings: 5 µM; 24 h

Structure (SMILES) | perinuclear lysosome accumulation
CC[C@H]1OC(=O)[C@H](C)[C@@H](O[C@H]2C[C@@](C)(OC)[C@@H](O)[C@H](C)O2)[C@H](C)[C@@H](O[C@@H]2O[C@H](C)C[C@H](N(C)C)[C@H]2O)[C@](C)(O)C[C@@H](C)[C@@H]2N[C@@H](COCCOC)O[C@H]([C@H]2C)[C@]1(C)O [Dirithromycin] | -0.323
O=C1CC2(CCCC2)CC(=O)N1CCCCN1CCN(c2ncccn2)CC1 [Buspirone hydrochloride] | -3.14
CCCNCC(O)COc1ccccc1C(=O)CCc1ccccc1 (stereo not drawn) [Propafenone hydrochloride] | 0.302
COc1cc([C@@H]2c3cc4c(cc3[C@@H](O[C@@H]3O[C@@H]5CO[C@@H](C)O[C@H]5[C@H](O)[C@H]3O)[C@H]3COC(=O)[C@H]23)OCO4)cc(OC)c1O [Etoposide] | 0.0852
COc1ccccc1OCC(O)CN1CCN(CC(=O)Nc2c(C)cccc2C)CC1 (stereo not drawn) [Ranolazine] | -1.3
C[C@H]1C[C@@H]2[C@H]([C@@H](O)C[C@@]3(C)[C@H]2CC[C@]3(O)C(=O)CO)[C@@]2(C)C=CC(=O)C=C12 [Methylprednisolone, 6-alpha] | -2.73
CC(C)NCC(O)c1ccc2ccccc2c1 (stereo not drawn) [Pronethalol hydrochloride] | -0.966
Nc1nc2n[nH]nc2c(=O)[nH]1 [Azaguanine-8] | -0.297
CN(C)c1nc(N(C)C)nc(N(C)C)n1 [Altretamine] | 0.208
O=C1OCCN1/N=C/c1ccc([N+](=O)[O-])o1 [Furazolidone] | -1.57
O=S(=O)(O)c1cc(O)ccc1O [Ethamsylate] | 0.863
CCC(=O)O[C@]1(C(=O)CCl)[C@@H](C)C[C@H]2[C@@H]3CCC4=CC(=O)C=C[C@]4(C)[C@@]3(F)[C@@H](O)C[C@@]21C [Clobetasol propionate] | -0.725
c1ccc([C@H]2CN3CCSC3=N2)cc1 [Levamisole hydrochloride] | -1.95
c1ccc2c3c([nH]c2c1)C1C2CCC(C4CCCNC42)N1CC3 (stereo not drawn) [Nitrarine dihydrochloride] | 0.2
COc1ccc(C2CNC(=O)C2)cc1OC1CCCC1 (stereo not drawn) [Rolipram] | 0.738
O=c1oc2ccccc2c(O)c1Cc1c(O)c2ccccc2oc1=O [Dicumarol] | -1.49
CN1CCN(CCCN2c3ccccc3Sc3ccc(Cl)cc32)CC1 [Prochlorperazine dimaleate] | 3.13
CN1CCN(c2c(F)cc3c(=O)c(C(=O)O)cn(CCF)c3c2F)CC1 [Fleroxacin] | 0.957
C[C@H](CCC(=O)O)[C@H]1CC[C@H]2[C@@H]3[C@H](O)C[C@@H]4C[C@H](O)CC[C@]4(C)[C@H]3CC[C@]12C [Chenodiol] | 0.585
CC(=O)OCC(CCn1cnc2cnc(N)nc21)COC(C)=O [Famciclovir] | -2.27
NNc1nncc2ccccc12 [Hydralazine hydrochloride] | 0.368
COc1c2occc2c(OC)c2c(=O)cc(C)oc12 [Khellin] | -0.312
CC[C@H](C)C(=O)O[C@H]1CCC=C2C=C[C@H](C)[C@H](CC[C@@H]3C[C@@H](O)CC(=O)O3)[C@H]21 [Mevastatin] | -0.78

Structure (SMILES) | perinuclear lysosome accumulation
Nc1cc(C(Cl)=C(Cl)Cl)c(S(N)(=O)=O)cc1S(N)(=O)=O [Clorsulon] | -0.269
CN(C)[C@@H]1C(O)=C(C(=O)NCN2CCCC2)C(=O)[C@@]2(O)C(O)=C3C(=O)c4c(O)cccc4[C@@](C)(O)[C@H]3C[C@@H]12 [Rolitetracycline] | -1.04
Cc1c(N(C)CS(=O)(=O)O)c(=O)n(-c2ccccc2)n1C [Dipyrone] | 0.395
CC(NCCC(c1ccccc1)c1ccccc1)c1ccccc1 (stereo not drawn) [Fendiline hydrochloride] | 2.21
CNCC(O)c1ccc(OC(=O)C(C)(C)C)c(OC(=O)C(C)(C)C)c1 (stereo not drawn) [Dipivefrin hydrochloride] | -2.49
CC(C)NCC(O)c1ccc(O)c(O)c1 (single isomer, unassigned; (+)) [(+)-Isoproterenol (+)-bitartrate salt] | -2.87
CCN(CC)CCc1nc(-c2ccccc2)no1 [Oxalamine citrate salt] | -0.228
CC(C)NC[C@@H](O)COc1cccc2ccccc12 [(R)-Propranolol hydrochloride] | 0.893
CN(C)CCOC(C)(c1ccccc1)c1ccccn1 (stereo not drawn) [Doxylamine succinate] | 0.408
CC(=O)c1ccc2c(c1)N(CCCN(C)C)c1ccccc1S2 [Acetopromazine maleate salt] | 0.879
CC(C)(C#N)c1cc(Cn2cncn2)cc(C(C)(C)C#N)c1 [Anastrozole] | -1.59
Oc1c(I)cc(Cl)c2cccnc12 [Clioquinol] | -0.487
Nc1ccn([C@H]2CC[C@@H](CO)O2)c(=O)n1 [Zalcitabine] | -0.663
CN(C(=O)C(Cl)Cl)c1ccc(OC(=O)c2ccco2)cc1 [Diloxanide furoate] | -0.987
COc1ccc(OC)c(C(O)CNC(=O)CN)c1 (stereo not drawn) [Midodrine hydrochloride] | -2.67
CN(C)CCN1C(=O)c2ccccc2N(C)c2ccccc21 [Dibenzepine hydrochloride] | -0.709
CN1CCN(CCCN2c3ccccc3Sc3ccc(C(F)(F)F)cc32)CC1 [Trifluoperazine dihydrochloride] | 2.2
CC[C@H](C)[C@H](N)C1=N[C@H](C(=O)N[C@@H](CC(C)C)C(=O)N[C@H](CCC(=O)O)C(=O)N[C@H](C(=O)N[C@H]2CCCCNC(=O)[C@H](CC(N)=O)NC(=O)[C@@H](CC(=O)O)NC(=O)[C@H](Cc3cnc[nH]3)NC(=O)[C@@H](Cc3ccccc3)NC(=O)[C@H]([C@@H](C)CC)NC(=O)[C@@H](CCCN)NC2=O)[C@@H](C)CC)CS1 [Bacitracin] ({Ileψ(thiazoline)Cys}-L[dE]IK[dOrn]I[dF]H[dD]N; lactam 4-C) | -0.586
CCOC(=O)O[C@]1(C(=O)COC(=O)CC)CC[C@H]2[C@@H]3CCC4=CC(=O)C=C[C@]4(C)[C@H]3[C@@H](O)C[C@@]21C [Prednicarbate] | -1.36
C=C1c2c(Cl)ccc(O)c2C(=O)C2=C(O)[C@]3(O)C(=O)C(C(N)=O)=C(O)[C@@H](N(C)C)[C@@H]3[C@@H](O)[C@H]12.O=C(O)c1cc(S(=O)(=O)O)ccc1O [Meclocycline sulfosalicylate] | 0.774
CC(C)(C)NCC(O)COc1cccc2c1CCC(=O)N2 (stereo not drawn) [Carteolol hydrochloride] | 1.21
COc1ccc2c(c1)c(CC(=O)O)c(C)n2C(=O)c1ccc(Cl)cc1 [Indomethacin] | 0.098
Nc1nc2ccc(OC(F)(F)F)cc2s1 [Riluzole hydrochloride] | 0.509

Filtered by structure, the compounds so far containing fluorine.
Structure (SMILES) | perinuclear lysosome accumulation
CCC(=O)O[C@]1(C(=O)CCl)[C@@H](C)C[C@H]2[C@@H]3CCC4=CC(=O)C=C[C@]4(C)[C@@]3(F)[C@@H](O)C[C@@]21C [Clobetasol propionate] | -0.725
CN1CCN(c2c(F)cc3c(=O)c(C(=O)O)cn(CCF)c3c2F)CC1 [Fleroxacin] | 0.957
CN1CCN(CCCN2c3ccccc3Sc3ccc(C(F)(F)F)cc32)CC1 [Trifluoperazine dihydrochloride] | 2.2
Nc1nc2ccc(OC(F)(F)F)cc2s1 [Riluzole hydrochloride] | 0.509

Later entries:

Structure (SMILES) | perinuclear lysosome accumulation
C(=C\c1ccccc1)/CN1CCN(C(c2ccccc2)c2ccccc2)CC1 [Cinnarizine] | -2.04
O=C(C1CCCCC1)N1CC(=O)N2CCc3ccccc3C2C1 (stereo not drawn) [Praziquantel] | 0.242
C[C@H]1O[C@@H](O[C@H]2[C@@H](O)C[C@H](O[C@H]3[C@@H](O)C[C@H](O[C@H]4CC[C@@]5(C)[C@H](CC[C@@H]6[C@@H]5C[C@@H](O)[C@]5(C)[C@@H](C7=CC(=O)OC7)CC[C@]65O)C4)O[C@@H]3C)O[C@@H]2C)C[C@H](O)[C@@H]1O [Digoxin] | 0.519
COc1cc([S+](C)[O-])ccc1-c1nc2cccnc2[nH]1 (stereo not drawn) [Sulmazole] | -1.36
CC(C(=O)O)c1ccc(-c2ccccc2)c(F)c1 (stereo not drawn) [Flurbiprofen] | -1.04
O=C(OCC(O)CO)c1ccccc1Nc1ccnc2cc(Cl)ccc12 (stereo not drawn) [Glafenine hydrochloride] | 0.395
Cc1cccc(C)c1NC(=O)C(C)N (stereo not drawn) [Tocainide hydrochloride] | -1
CCCCc1cc2ccccc2c(OCCN(C)C)n1 [Dimethisoquin hydrochloride] | -0.365
CC(C(=O)O)c1ccc2c(c1)[nH]c1ccc(Cl)cc12 (stereo not drawn) [Carprofen] | -0.0869
Oc1c(Cl)cc(Cl)c(Cl)c1Cc1c(O)c(Cl)cc(Cl)c1Cl [Hexachlorophene] | 4.76
Cc1c(N(C)C)c(=O)n(-c2ccccc2)n1C [Amidopyrine] | -0.969
COc1ccc(/C=C/C(=O)Nc2ccccc2C(=O)O)cc1OC [Tranilast] | -1.43
Oc1ccc(/C=C/c2cc(O)cc(O)c2)cc1 [Resveratrol] | 0.828
CCOC(=O)C1=C(COCCN)NC(C)=C(C(=O)OC)C1c1ccccc1Cl (stereo not drawn) [Amlodipine] | 0.343
CN1[C@@H]2CC[C@H]1C[C@@H](OC(=O)c1c[nH]c3ccccc13)C2 [Tropisetron HCl] | -1.75
Cc1cccc(C)c1OCC(C)N (stereo not drawn) [Mexiletine hydrochloride] | 0.339
COc1ccccc1OCC(O)CO (stereo not drawn) [Guaifenesin] | -0.323
NC[C@@H]1O[C@H](O[C@H]2[C@@H](O)[C@H](O[C@@H]3[C@@H](O)[C@H](N)C[C@H](N)[C@H]3O[C@H]3O[C@H](CO)[C@@H](O)[C@H](O)[C@H]3N)O[C@@H]2CO)[C@H](N)[C@@H](O)[C@@H]1O [Paromomycin sulfate] | 0.00176
CC(=O)[C@H]1CC[C@H]2[C@@H]3C=CC4=CC(=O)CC[C@@]4(C)[C@@H]3CC[C@]12C [Dydrogesterone] | -0.0332
Nc1ccccc1S(N)(=O)=O [2-Aminobenzenesulfonamide] | 0.0694
COc1ccccc1Oc1c(NS(=O)(=O)c2ccc(C(C)(C)C)cc2)nc(-c2ncccn2)nc1OCCO [Bosentan] | -2.05
CC(C)[N+](C)(CCOC(=O)C1c2ccccc2Oc2ccccc21)C(C)C [Propantheline bromide] | 1.64
